According to the supplement of paper PMC10849652:
The other results are listed elsewhere or left out.

The chains behind the UniProt entries cited, without tags or fusion partners. Where a name states a change or a piece, a line headed by the entry shows the natural chain unless it says otherwise.
UniProt Q7Z3B0: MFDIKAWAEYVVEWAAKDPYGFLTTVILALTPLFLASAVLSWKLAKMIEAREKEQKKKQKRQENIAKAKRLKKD
UniProt Q86T20: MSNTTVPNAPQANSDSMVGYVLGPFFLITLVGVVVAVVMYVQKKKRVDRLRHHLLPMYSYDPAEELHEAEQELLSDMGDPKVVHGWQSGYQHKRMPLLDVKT
UniProt Q9UPR3: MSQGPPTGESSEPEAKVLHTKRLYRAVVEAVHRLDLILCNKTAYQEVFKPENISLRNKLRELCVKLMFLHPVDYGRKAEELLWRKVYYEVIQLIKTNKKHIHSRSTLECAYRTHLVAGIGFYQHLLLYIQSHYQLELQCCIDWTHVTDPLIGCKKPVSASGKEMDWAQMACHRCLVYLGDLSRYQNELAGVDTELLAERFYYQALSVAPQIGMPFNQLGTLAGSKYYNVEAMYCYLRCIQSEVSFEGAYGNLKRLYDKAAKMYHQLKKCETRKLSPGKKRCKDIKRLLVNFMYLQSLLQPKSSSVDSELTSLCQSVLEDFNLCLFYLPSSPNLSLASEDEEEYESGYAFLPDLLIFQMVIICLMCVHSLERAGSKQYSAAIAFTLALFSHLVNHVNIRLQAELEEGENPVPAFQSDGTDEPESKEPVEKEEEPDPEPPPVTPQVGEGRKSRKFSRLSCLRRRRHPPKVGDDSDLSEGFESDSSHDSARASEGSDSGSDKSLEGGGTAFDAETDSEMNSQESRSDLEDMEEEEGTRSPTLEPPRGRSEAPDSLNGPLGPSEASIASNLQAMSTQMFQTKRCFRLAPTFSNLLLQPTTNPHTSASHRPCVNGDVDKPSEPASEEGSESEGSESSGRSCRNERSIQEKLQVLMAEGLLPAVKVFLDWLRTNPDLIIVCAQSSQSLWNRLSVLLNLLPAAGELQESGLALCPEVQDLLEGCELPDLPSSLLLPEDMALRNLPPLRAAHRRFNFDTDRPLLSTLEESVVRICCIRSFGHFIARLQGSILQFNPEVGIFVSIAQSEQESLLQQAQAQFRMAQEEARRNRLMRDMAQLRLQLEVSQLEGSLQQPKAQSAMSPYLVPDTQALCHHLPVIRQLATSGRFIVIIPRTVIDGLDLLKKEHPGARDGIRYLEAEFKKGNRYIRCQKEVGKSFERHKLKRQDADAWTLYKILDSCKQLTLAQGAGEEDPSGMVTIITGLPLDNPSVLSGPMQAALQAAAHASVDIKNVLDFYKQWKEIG
UniProt Q0VAQ4: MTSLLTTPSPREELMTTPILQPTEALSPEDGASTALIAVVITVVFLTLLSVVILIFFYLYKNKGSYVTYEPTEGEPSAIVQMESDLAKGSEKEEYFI
UniProt Q8TEV9: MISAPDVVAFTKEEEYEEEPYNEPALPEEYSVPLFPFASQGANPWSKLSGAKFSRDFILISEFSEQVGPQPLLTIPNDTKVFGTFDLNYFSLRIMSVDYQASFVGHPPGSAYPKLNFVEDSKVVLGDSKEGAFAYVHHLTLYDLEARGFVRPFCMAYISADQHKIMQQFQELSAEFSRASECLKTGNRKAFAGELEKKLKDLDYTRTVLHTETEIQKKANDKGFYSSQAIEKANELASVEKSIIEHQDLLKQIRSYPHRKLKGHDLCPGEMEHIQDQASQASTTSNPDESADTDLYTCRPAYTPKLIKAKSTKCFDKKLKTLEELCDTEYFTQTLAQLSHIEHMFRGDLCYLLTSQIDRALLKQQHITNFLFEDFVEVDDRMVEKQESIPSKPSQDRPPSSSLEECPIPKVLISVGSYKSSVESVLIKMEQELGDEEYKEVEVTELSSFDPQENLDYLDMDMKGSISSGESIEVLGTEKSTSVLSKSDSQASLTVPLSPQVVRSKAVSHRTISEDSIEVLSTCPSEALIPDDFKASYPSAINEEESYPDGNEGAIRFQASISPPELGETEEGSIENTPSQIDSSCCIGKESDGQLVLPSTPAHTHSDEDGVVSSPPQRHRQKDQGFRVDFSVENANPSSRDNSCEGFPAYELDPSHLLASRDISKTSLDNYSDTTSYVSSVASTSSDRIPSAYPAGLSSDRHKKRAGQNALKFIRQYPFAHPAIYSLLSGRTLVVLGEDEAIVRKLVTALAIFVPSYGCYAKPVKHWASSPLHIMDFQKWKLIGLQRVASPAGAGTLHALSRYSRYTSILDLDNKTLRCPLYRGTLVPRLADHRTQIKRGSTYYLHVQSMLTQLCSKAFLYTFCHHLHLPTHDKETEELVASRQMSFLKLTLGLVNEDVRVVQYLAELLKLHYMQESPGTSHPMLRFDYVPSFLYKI
UniProt O14508, whole entry, looked up: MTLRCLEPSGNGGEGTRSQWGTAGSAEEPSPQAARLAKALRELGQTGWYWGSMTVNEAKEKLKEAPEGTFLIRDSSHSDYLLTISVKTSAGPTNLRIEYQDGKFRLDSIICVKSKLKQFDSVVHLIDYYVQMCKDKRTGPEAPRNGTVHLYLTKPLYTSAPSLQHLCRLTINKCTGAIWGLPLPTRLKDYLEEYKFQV
UniProt Q9H4I9: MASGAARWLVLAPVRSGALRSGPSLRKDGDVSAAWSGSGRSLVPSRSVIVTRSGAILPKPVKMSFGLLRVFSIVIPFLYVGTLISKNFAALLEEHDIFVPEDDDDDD
UniProt Q96Q15: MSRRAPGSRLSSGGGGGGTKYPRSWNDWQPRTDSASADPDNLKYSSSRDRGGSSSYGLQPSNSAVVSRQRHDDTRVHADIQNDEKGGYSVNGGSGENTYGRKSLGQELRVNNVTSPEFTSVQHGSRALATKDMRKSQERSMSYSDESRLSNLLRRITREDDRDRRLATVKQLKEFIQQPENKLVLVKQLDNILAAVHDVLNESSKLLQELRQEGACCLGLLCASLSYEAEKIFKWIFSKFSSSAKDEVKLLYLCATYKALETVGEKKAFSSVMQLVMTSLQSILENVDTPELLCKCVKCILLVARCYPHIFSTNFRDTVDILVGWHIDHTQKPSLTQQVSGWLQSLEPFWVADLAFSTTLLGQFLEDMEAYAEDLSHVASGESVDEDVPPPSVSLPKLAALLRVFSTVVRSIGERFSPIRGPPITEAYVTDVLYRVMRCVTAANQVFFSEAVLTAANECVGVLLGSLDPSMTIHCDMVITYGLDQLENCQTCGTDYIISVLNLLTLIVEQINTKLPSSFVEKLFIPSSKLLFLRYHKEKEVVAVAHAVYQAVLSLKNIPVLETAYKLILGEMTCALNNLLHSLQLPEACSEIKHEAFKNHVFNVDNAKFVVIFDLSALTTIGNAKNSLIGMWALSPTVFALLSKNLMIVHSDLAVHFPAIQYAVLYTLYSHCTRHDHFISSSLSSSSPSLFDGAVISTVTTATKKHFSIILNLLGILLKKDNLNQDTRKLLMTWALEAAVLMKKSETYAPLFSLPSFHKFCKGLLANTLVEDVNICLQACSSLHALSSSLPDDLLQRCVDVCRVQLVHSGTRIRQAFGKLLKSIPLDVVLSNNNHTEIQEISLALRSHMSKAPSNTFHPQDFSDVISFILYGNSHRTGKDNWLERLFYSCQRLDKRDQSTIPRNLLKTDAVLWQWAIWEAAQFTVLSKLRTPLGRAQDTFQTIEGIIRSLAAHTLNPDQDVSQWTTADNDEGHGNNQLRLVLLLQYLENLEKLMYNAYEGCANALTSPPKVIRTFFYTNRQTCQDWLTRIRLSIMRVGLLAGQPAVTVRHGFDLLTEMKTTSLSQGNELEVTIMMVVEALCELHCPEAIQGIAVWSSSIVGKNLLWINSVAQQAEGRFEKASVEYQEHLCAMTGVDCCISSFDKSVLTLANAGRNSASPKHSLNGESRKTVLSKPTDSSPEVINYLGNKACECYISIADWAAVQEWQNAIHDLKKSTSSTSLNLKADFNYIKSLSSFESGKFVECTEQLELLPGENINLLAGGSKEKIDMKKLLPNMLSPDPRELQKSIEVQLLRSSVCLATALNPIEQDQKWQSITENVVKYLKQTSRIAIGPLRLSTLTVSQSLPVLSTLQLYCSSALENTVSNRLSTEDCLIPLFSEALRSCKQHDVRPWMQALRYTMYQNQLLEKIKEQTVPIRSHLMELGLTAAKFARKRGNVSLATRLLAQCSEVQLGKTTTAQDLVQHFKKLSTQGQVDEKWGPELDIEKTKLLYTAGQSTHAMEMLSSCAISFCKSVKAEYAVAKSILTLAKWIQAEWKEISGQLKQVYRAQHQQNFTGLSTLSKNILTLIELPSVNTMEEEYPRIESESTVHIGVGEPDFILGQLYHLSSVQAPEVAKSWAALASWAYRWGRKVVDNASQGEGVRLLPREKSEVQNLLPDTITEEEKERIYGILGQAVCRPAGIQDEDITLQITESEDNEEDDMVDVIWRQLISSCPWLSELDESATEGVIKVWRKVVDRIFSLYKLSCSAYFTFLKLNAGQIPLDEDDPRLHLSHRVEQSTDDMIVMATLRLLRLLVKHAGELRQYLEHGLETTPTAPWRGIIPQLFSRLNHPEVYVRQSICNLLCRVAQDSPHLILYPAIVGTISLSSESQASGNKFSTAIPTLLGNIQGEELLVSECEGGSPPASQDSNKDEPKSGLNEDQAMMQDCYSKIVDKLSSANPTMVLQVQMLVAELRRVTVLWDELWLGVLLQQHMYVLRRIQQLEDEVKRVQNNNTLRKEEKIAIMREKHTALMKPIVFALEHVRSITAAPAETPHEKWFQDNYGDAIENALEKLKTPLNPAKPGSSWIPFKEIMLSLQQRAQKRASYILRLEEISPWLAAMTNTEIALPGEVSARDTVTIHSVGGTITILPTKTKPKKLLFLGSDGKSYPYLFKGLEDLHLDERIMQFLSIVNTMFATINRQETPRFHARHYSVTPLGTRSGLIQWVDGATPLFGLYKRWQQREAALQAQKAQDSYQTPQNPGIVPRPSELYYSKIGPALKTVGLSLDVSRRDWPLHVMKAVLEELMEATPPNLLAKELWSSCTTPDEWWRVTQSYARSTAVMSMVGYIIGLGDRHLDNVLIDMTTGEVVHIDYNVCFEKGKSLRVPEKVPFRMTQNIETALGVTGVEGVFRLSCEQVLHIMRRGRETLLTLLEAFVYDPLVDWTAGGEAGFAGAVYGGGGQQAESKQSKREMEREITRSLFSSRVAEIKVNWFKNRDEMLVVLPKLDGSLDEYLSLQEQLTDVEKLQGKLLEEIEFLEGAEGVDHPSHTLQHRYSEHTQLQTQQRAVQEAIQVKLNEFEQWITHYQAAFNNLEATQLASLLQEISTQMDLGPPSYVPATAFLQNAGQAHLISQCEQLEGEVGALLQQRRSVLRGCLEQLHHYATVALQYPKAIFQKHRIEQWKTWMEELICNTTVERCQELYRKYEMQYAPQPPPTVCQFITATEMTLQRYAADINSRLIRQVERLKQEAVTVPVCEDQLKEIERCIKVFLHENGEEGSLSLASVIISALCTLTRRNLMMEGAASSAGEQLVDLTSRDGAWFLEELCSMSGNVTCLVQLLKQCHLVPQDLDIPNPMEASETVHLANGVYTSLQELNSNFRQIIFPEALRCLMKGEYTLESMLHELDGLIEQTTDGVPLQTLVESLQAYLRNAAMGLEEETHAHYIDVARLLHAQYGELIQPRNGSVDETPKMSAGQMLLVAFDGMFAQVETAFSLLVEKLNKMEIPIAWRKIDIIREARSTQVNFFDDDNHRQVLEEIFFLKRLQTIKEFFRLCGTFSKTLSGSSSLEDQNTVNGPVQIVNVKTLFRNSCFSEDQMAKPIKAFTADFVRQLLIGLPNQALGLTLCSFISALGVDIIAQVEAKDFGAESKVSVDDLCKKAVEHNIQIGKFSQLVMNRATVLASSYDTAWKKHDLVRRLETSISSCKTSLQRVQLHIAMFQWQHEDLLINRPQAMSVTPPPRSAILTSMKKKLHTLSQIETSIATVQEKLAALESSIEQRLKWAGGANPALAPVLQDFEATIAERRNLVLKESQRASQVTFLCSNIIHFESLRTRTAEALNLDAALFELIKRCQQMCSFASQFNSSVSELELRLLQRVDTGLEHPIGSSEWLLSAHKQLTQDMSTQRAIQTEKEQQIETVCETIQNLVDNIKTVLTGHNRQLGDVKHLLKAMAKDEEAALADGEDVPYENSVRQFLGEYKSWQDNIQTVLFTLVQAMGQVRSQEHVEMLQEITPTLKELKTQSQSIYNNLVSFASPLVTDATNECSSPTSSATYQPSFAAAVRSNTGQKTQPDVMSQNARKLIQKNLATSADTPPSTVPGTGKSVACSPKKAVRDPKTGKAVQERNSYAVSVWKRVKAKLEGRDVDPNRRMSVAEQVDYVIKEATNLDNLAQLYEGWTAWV
UniProt Q12824, whole entry, looked up: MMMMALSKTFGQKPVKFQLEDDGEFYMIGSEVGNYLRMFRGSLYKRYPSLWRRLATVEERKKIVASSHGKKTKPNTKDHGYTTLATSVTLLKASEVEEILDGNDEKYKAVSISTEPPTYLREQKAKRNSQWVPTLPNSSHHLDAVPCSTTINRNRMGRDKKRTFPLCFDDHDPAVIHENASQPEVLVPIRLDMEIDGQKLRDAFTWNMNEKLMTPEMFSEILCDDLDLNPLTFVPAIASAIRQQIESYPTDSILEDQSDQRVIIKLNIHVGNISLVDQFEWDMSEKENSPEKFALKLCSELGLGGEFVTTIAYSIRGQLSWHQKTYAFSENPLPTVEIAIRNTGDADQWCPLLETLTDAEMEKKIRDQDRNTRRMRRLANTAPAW

Legend:
Experiment in all cases: log2 fold change, soluble protein after heating vs DMSO (PISA); higher = thermal stabilisation; K562 cells, 10 uM, 30 min; active = over 0.2 and 3.5 SD of the protein, either way, in both replicates (recomputed)
[1] = compound: CN1CCN(CCOc2cc(OC3CCOCC3)c3c(Nc4c(Cl)ccc5c4OCO5)ncnc3c2)CC1 [saracatinib]
How it was run: (§1)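 For each measurement, 10 μM compound was applied for 30 min to K562 cells at 2×10^6 cells/mL. Aliquots were heated for 3 min across 48°C-58°C, pooled, and extracted in PBS with 0.5% NP-40 at 4°C; the supernatant after 21,000xg for 90 min was soluble protein. This was quantified by TMTpro 16plex LC-MS/MS with channel sums equalised, and thermal stability was reported relative to control samples from duplicates, on a log2 fold-change scale.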

[2] = compound: CN1CCN(c2nc(C3=C(c4c[nH]c5ccccc45)C(=O)NC3=O)c3ccccc3n2)CC1 [sotrastaurin]
How it was run: as §1

[3] = compound: CN1CC[C@H](c2c(O)cc(O)c3c(=O)cc(-c4ccccc4Cl)oc23)[C@H](O)C1 [alvocidib]
How it was run: as §1

[4] = compound: CN1CCc2c(c3ccccc3n2Cc2ccc(C(=O)NO)cc2)C1 [Tubastatin A]
How it was run: as §1

[5] = compound: CNC(=O)C1=CC=CC=C1NC2=NC(=NC=C2Cl)NC3=C(C=C(C=C3)N4CCOCC4)OC
How it was run: as §1

[6] = compound: CNC(=O)c1ccc(Nc2ncc(C(F)(F)F)c(NCc3nccnc3N(C)S(C)(=O)=O)n2)cc1 [defactinib]
How it was run: as §1

[7] = compound: CNCc1ccc(-c2[nH]c3cc(F)cc4c3c2CCNC4=O)cc1 [rucaparib]
How it was run: as §1

[8] = compound: CNc1nc(-c2ccc3c(N)n[nH]c3c2)cc(N2C[C@@H](C(=O)NC3CCCCC3)CC[C@H]2C)n1
How it was run: as §1

[9] = compound: COC(=O)N[C@@H](C)CNc1nccc(-c2cn(C(C)C)nc2-c2cc(Cl)cc(NS(C)(=O)=O)c2F)n1 [encorafenib]
How it was run: as §1

[10] = compound: COC(=O)[C@H](CCSC)NC(=O)C1=C(C=C(C=C1)NC[C@H](CS)N)C2=CC=CC=C2
How it was run: as §1

Measured: log2 fold change

SMIM15 (UniProt Q7Z3B0)
inactive: [1] 0.126 | [2] -0.034 | [3] -0.058 | [4] 0.053 | [5] -0.062 | [6] -0.071 | [7] 0.124 | [8] 0.063 | [9] 0.027 | [10] -0.058

SLC9A1 (UniProt P19634)
inactive: [1] 0.064 | [2] 0.037 | [4] -0.087 | [5] 0.176 | [6] -0.02 | [7] 0.033 | [8] -0.122 | [9] 0.043 | [10] 0

SMAP1 isoform 2 (UniProt Q8IYB5)
inactive: [1] 0.05 | [2] -0.025 | [3] -0.05 | [4] -0.014 | [5] 0.118 | [6] -0.078 | [7] -0.038 | [8] -0.075 | [9] 0.025 | [10] 0.033

SMIM29 (UniProt Q86T20)
inactive: [1] -0.105 | [2] 0.001 | [3] 0.161 | [5] -0.043 | [8] -0.104

SMG5 (UniProt Q9UPR3)
inactive: [1] 0.049 | [2] -0.022 | [3] -0.143 | [4] -0.002 | [5] -0.009 | [6] -0.098 | [8] -0.157 | [10] -0.052

SNX17 (UniProt Q15036)
inactive: [1] -0.015 | [2] 0.06 | [3] 0.064 | [4] -0.257 | [5] 0.005 | [6] -0.195 | [7] 0.073 | [8] -0.037 | [9] 0.275 | [10] -0.03

SMAGP (UniProt Q0VAQ4)
inactive: [1] 0.147 | [2] 0.256 | [3] -0.094 | [4] 0.152 | [7] 0.019 | [8] -0.132 | [9] -0.097

SNCG (UniProt O76070)
inactive: [1] 0.025 | [2] 0.037 | [3] 0.002 | [4] -0.007 | [5] -0.075 | [6] -0.007 | [7] -0.028 | [8] -0.043 | [9] -0.017 | [10] 0.041

SMYD3 (UniProt Q9H7B4)
inactive: [1] -0.19 | [2] -0.21 | [3] 0.162 | [4] -0.118 | [5] 0.034 | [6] 0.156 | [8] 0.037 | [10] -0.24

SNRPD3 (UniProt P62318)
inactive: [1] 0.004 | [2] 0.068 | [4] -0.097 | [5] 0.038 | [6] 0.137 | [7] 0.017 | [8] -0.098 | [9] -0.027 | [10] -0.003

SNUPN (UniProt O95149)
inactive: [1] 0.052 | [2] -0.069 | [4] -0.036 | [5] -0.019 | [6] -0.056 | [7] -0.027 | [8] -0.04 | [9] 0.021 | [10] 0.028

SNTB2 (UniProt Q13425)
inactive: [1] -0.055 | [2] 0.005 | [3] -0.198 | [4] 0.086 | [6] -0.141 | [7] 0.021 | [8] 0.035 | [9] 0.02 | [10] -0.054

SOD2 (UniProt P04179)
inactive: [1] 0.027 | [2] 0.056 | [3] 0.05 | [4] -0.022 | [5] -0.001 | [6] 0.024 | [7] -0.037 | [8] -0.079 | [9] 0.02 | [10] 0.035

SMCR8 (UniProt Q8TEV9)
inactive: [1] 0.079 | [2] -0.004 | [3] -0.042 | [4] -0.062 | [5] -0.055 | [7] -0.051 | [8] -0.031 | [9] -0.166

SMG6 (UniProt Q86US8)
inactive: [1] -0.098 | [2] -0.147 | [3] 0.568 | [4] 0.431 | [8] -0.211

SOCS2 (UniProt O14508)
inactive: [1] 0.083 | [2] 0.024 | [3] 0.015 | [4] 0.006 | [5] -0.061 | [6] -0.047 | [7] -0.012 | [8] -0.051 | [9] 0 | [10] 0.014

SLFN14 (UniProt P0C7P3)
inactive: [1] -0.12 | [2] 0.128 | [3] -0.003 | [4] 0.134 | [6] 0.52 | [8] 0.305 | [10] 0.018

SNX16 (UniProt P57768)
inactive: [1] 0.052 | [2] 0.022 | [3] 0.087 | [5] 0.038 | [6] -0.067 | [7] 0.142 | [8] 0.02 | [9] -0.041 | [10] -0.033

SNRNP40 (UniProt Q96DI7)
inactive: [1] 0.068 | [2] -0.01 | [4] -0.092 | [5] 0.045 | [6] 0.128 | [7] 0.012 | [8] -0.03 | [9] 0.039 | [10] -0.034

SNX14 (UniProt Q9Y5W7)
inactive: [1] -0.125 | [2] -0.069 | [4] 0.063 | [5] 0.011 | [6] -0.034 | [7] -0.011 | [8] 0.105 | [9] -0.025 | [10] 0.003

SMDT1 (UniProt Q9H4I9)
inactive: [1] 0.092 | [2] -0.077 | [4] 0.035 | [6] 0.014 | [7] 0.057 | [8] -0.064 | [9] 0.011 | [10] 0.003

SMC5 (UniProt Q8IY18)
inactive: [1] -0.005 | [2] -0.075 | [4] -0.034 | [5] 0.056 | [6] -0.05 | [7] 0.015 | [8] -0.046 | [9] -0.045 | [10] -0.014

SMAD9 (UniProt O15198)
inactive: [1] 0.076 | [2] 0.078 | [4] -0.003 | [5] -0.013 | [6] -0.076 | [7] -0.094 | [8] 0.055 | [9] -0.001 | [10] -0.049

Quoted from the results shown (2 entries):
SMC5 (UniProt Q8IY18)
inactive: [1] -0.005 | [2] -0.075 | [4] -0.034 | [5] 0.056 | [6] -0.05 | [7] 0.015 | [8] -0.046 | [9] -0.045 | [10] -0.014

SMAD9 (UniProt O15198)
inactive: [1] 0.076 | [2] 0.078 | [4] -0.003 | [5] -0.013 | [6] -0.076 | [7] -0.094 | [8] 0.055 | [9] -0.001 | [10] -0.049

Further entries

SMG1 (UniProt Q96Q15)
inactive: [1] -0.039 | [2] 0.041 | [4] 0.014 | [5] 0.042 | [6] 0 | [7] 0.025 | [8] -0.12 | [9] 0.023 | [10] 0.017

SLIRP (UniProt Q9GZT3)
inactive: [1] -0.068 | [2] -0.141 | [4] 0.019 | [5] -0.045 | [6] -0.005 | [7] 0.148 | [8] -0.185 | [9] -0.094 | [10] 0.096

SMARCB1 (UniProt Q12824)
active: [7] 0.809
inactive: [1] -0.09 | [2] -0.192 | [4] 0.016 | [6] -0.158 | [8] -0.009 | [9] -0.247 | [10] 0.144

SMIM20 isoform 2 (UniProt Q8N5G0)
inactive: [1] 0 | [2] 0.056 | [4] -0.013 | [5] 0.018 | [6] -0.138 | [7] -0.088 | [8] -0.094 | [9] -0.055 | [10] -0.143

SLC9A6 isoform 2 (UniProt Q92581)
inactive: [1] 0.06 | [2] 0.048 | [4] -0.027 | [5] 0.001 | [6] -0.027 | [7] -0.015 | [8] -0.07 | [9] 0.008 | [10] 0.053

SNX6 (UniProt Q9UNH7)
inactive: [1] -0.018 | [2] 0.026 | [4] -0.051 | [5] -0.125 | [6] -0.054 | [7] -0.016 | [8] 0.041 | [9] 0.042 | [10] -0.009

SPAG9 (UniProt O60271)
inactive: [1] 0.014 | [2] -0.037 | [4] 0.003 | [5] 0.02 | [6] -0.044 | [7] 0.049 | [8] 0.034 | [9] 0.023 | [10] -0.011
